Common to all, as to assay: log2 fold change, soluble protein after heating vs DMSO (PISA); higher = thermal stabilisation; K562 cells, 10 uM, 30 min; active = over 0.2 and 3.5 SD of the protein, either way, in both replicates (recomputed)
Compound in assay [1]: CC1=C(C=C(C=C1)NC(=O)C2=CC(=CC=C2)C(C)(C)C#N)NC3=CC4=C(C=C3)N=CN(C4=O)C
The gist of the method: (§1)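 K562 cells (2×10^6 cells/mL) were treated with 10 μM compound for 30 min, and aliquots were heated for 3 min over 48°C-58°C. Pooled aliquots were extracted in PBS with 0.5% NP-40 at 4°C, and the supernatant after 21,000xg for 90 min was measured by TMTpro 16plex LC-MS/MS with channel sums equalised. Reported thermal stability, relative to control samples and from duplicates, is a log2 fold change.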

The chains behind the UniProt entries cited, without tags or fusion partners. Where a name states a change or a piece, a line headed by the entry shows the natural chain unless it says otherwise.
UniProt Q96LU5: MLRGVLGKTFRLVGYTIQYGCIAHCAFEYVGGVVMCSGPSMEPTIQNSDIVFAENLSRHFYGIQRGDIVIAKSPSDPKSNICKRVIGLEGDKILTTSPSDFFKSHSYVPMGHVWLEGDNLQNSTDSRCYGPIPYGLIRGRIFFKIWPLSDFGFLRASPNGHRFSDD
UniProt Q9H0H0, whole entry, looked up: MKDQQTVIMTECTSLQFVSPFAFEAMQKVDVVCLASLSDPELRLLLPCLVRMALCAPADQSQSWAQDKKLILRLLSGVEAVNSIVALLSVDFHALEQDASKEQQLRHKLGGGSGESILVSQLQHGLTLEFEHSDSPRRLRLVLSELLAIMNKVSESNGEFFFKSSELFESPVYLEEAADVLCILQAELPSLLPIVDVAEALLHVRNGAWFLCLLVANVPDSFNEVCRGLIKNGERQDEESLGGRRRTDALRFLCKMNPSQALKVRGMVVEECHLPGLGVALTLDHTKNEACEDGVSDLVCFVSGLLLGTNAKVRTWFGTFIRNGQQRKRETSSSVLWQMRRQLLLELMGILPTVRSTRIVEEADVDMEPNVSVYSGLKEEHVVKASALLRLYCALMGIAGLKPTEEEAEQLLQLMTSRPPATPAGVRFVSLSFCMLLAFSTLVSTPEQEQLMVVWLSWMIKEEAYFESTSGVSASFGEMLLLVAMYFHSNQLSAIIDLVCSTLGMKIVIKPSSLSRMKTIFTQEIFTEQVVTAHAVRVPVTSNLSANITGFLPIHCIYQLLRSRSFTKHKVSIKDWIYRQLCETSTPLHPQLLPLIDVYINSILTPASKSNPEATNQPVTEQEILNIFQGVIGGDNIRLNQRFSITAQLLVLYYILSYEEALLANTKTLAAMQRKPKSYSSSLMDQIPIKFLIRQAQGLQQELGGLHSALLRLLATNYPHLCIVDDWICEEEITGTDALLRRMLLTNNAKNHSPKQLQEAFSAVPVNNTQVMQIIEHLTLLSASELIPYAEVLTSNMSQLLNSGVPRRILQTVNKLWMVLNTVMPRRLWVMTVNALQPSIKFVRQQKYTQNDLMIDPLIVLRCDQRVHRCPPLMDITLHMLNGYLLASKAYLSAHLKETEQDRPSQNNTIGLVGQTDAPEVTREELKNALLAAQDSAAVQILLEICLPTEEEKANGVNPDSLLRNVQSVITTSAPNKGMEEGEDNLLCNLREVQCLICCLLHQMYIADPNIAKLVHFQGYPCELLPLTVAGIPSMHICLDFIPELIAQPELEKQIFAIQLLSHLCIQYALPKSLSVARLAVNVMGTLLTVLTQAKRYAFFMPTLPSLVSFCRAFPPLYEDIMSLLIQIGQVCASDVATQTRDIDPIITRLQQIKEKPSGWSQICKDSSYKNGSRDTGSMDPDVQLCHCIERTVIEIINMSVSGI
UniProt Q9Y6M1: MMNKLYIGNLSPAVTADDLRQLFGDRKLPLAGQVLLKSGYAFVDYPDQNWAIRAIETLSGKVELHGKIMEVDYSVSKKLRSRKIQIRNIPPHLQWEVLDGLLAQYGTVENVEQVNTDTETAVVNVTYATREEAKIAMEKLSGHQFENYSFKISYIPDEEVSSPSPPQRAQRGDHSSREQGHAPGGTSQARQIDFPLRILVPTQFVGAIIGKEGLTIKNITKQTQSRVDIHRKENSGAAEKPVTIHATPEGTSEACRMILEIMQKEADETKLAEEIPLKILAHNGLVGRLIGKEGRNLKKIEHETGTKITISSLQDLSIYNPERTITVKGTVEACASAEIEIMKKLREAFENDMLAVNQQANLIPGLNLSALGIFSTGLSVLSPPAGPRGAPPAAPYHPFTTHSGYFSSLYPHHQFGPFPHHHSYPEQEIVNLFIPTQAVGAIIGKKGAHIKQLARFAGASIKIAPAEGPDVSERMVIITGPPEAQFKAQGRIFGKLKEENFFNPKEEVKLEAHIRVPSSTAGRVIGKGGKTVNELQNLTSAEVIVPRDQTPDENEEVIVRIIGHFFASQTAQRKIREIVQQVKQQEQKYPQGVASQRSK
UniProt Q9H6K1: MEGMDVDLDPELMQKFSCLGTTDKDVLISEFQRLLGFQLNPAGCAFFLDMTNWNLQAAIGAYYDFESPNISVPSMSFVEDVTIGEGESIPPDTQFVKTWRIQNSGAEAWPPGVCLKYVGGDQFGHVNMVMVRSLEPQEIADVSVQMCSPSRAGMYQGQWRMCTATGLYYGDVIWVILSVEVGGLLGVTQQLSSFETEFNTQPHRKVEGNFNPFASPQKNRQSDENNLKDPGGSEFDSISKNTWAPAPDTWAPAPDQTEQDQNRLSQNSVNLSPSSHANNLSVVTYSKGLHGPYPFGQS
UniProt Q13422: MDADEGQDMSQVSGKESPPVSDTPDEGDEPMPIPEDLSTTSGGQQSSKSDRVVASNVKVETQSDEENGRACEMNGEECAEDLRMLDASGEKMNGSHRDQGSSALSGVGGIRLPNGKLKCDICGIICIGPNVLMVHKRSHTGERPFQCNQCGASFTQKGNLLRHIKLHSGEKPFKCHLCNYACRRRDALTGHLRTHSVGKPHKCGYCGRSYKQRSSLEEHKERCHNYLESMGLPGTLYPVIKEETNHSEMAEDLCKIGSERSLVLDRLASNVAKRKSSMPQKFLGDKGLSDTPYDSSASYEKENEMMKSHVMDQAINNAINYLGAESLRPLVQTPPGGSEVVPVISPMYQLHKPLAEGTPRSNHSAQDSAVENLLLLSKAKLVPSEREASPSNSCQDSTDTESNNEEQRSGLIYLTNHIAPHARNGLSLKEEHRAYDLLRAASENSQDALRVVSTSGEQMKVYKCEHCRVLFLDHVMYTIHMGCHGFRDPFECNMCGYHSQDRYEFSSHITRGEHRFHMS
UniProt P22692: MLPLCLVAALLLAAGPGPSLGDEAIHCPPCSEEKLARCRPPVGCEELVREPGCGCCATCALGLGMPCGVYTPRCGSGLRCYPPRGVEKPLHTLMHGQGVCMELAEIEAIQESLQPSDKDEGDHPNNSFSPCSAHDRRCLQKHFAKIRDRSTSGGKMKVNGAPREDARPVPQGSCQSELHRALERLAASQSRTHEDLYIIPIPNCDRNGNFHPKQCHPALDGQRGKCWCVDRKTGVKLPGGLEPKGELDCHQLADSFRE
UniProt Q12906, whole entry, looked up: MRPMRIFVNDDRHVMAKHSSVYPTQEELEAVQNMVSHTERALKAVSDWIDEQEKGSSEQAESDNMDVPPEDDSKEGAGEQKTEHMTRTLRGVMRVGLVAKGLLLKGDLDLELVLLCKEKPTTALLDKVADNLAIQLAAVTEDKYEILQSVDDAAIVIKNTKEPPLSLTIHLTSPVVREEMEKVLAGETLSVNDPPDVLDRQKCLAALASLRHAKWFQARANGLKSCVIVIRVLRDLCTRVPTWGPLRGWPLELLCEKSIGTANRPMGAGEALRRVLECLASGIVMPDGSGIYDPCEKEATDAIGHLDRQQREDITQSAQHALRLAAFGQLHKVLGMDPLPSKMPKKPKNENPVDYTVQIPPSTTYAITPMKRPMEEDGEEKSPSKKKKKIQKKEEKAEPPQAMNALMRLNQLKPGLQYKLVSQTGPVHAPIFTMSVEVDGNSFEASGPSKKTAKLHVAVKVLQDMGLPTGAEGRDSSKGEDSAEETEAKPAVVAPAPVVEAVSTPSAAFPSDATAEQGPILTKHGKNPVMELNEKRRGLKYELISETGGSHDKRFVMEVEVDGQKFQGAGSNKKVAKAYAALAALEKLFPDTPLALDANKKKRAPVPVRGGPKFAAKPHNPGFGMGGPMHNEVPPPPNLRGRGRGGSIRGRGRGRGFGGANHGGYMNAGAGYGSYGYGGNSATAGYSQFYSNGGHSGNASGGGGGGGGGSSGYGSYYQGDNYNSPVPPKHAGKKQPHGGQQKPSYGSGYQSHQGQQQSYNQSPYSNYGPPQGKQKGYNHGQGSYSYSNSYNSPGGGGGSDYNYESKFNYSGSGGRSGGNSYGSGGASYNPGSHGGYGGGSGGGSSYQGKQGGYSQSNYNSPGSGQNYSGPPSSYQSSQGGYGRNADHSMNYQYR
UniProt Q16891: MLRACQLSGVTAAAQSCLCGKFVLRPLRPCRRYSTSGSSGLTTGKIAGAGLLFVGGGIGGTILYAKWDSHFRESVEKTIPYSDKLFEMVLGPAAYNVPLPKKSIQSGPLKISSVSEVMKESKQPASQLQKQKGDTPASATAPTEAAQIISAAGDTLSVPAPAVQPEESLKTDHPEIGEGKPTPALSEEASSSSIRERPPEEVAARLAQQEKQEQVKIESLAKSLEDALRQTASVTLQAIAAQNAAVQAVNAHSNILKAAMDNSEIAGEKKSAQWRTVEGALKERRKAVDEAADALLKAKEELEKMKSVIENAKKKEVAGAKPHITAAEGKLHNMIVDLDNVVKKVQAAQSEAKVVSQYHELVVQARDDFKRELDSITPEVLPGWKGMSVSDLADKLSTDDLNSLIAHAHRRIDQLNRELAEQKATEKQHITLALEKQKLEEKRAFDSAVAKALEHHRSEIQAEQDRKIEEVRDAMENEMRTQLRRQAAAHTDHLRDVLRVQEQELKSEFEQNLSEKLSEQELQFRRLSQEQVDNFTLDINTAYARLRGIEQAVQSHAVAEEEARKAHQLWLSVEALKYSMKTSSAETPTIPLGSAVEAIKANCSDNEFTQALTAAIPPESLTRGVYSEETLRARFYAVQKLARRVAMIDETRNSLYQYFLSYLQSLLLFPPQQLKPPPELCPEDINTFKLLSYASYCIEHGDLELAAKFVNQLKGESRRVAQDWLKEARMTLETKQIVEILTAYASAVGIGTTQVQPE

Compound in assay [2]: CC1=C(C=C(C=C1)NC(=O)C2=CC(=CC=C2)N(C)C)NC(=O)C3=CC=C(C=C3)O
The gist of the method:
as §1

Compound in assay [3]: CC1=CC=C(C=C1)SC2=C3C=C(SC3=CN=C2)C(=O)N
The gist of the method: as §1

Compound in assay [4]: CC1=NC(=CC=C1)C2=C(N=C(N2)C(C)(C)C)C3=CC4=NC=CN=C4C=C3
Put shortly:
as §1

Compound in the next assay: CCCCN(Cc1ccc(C(=O)NO)cc1)C(=O)Nc1ccccc1 [Nexturastat A]
Put shortly:
as §1

Compound in another assay: CCCS(=O)(=O)Nc1ccc(F)c(C(=O)c2c[nH]c3ncc(-c4ccc(Cl)cc4)cc23)c1F [vemurafenib]
Put shortly: as §1

Compound in assay [5]: CCCS(=O)(=O)Nc1ccc(F)c(C(=O)c2c[nH]c3ncc(Cl)cc23)c1F
Put shortly: as §1

Compound in assay [6]: CCCc1cc(C)[nH]c(=O)c1CNC(=O)c1cc(-c2ccnc(N3CCN(C)CC3)c2)cc2c1cnn2C(C)C
The gist of the method: as §1

Compound in another assay: CCN(CC)Cc1ccc2cc(COC(=O)Nc3ccc(C(=O)NO)cc3)ccc2c1 [givinostat]
The gist of the method: as §1

Compound in another assay: CCN(CCCOc1ccc2c(Nc3cc(CC(=O)Nc4cccc(F)c4)[nH]n3)ncnc2c1)CCOP(=O)(O)O [barasertib]
Put shortly: as §1

Compound in assay [7]: CC[C@@H]1C(=O)N(C)c2cnc(Nc3ccc(C(=O)NC4CCN(C)CC4)cc3OC)nc2N1C1CCCC1
The gist of the method: as §1

Compound in a further assay: CC[C@@H]1C(=O)N(C)c2cnc(Nc3ccc(C(=O)N[C@H]4CC[C@H](N5CCN(CC6CC6)CC5)CC4)cc3OC)nc2N1C(C)C [volasertib]
Put shortly: as §1

Compound in assay [8]: CC[C@H](C)N1C=C(C2=C(C=C(C=C21)C3=CN=C(C=C3)N4CCNCC4)C(=O)NCC5=C(C=C(NC5=O)C)C)C
Put shortly:
as §1

Compound in a further assay: CC[C@H](C)[C@@H](C(=O)N[C@@H]([C@@H](C)O)C(=O)N[C@@H](CC(C)C)C(=O)[C@]1(CO1)C)NC(=O)[C@H]([C@@H](C)CC)N(C)C(=O)C [epoxomicin]
Put shortly: as §1

Compound in assay [9]: CN(C)CC(=O)Nc1ccc2[nH]c(=O)c3ccccc3c2c1
Put shortly:
as §1

Compound in assay [10]: CN1C2=C(C3=C1C(=O)N(N=C3)CC4=CC(=CC=C4)N)SC(=C2)S(=O)C
Put shortly:
as §1

Compound in assay [11]: CCn1c(C(=O)N(C2CC2)C2CC2)cc2c3c(ncn3C)c(Nc3cc(C)n(C)n3)nc21
The gist of the method: as §1

Compound in assay [12]: CCn1cc(-c2ccnc3[nH]c(-c4cccc(CN(C)C)c4)cc23)c(-c2ccc(NC(=O)N(C)C)cc2)n1
Put shortly:
as §1

Compound in assay [13]: CN1CCC(CNc2ccc3ncc(-c4cccc(OC(F)(F)F)c4)n3n2)CC1
The gist of the method:
as §1

The other results are listed elsewhere or left out.

Turning to IMMP1L (UniProt Q96LU5), the log2 fold change was inactive: 0.003 in assay [1]; inactive: 0.067 in assay [2]; inactive: 0.008 in [3]; inactive: -0.029 in assay [4]; inactive: -0.085 in the assay with Nexturastat A; inactive: -0.055 in the assay with vemurafenib. Moreover, the log2 fold change in assay [5] was inactive: -0.031; in assay [6] it was inactive: 0.273; with givinostat, inactive: -0.048; with barasertib, inactive: -0.024; in assay [7] it was inactive: -0.012; with volasertib it was inactive: -0.055. Also, the log2 fold change in assay [8] was inactive: -0.02; in the assay with epoxomicin, inactive: -0.015; in [9] it was inactive: 0.017; in assay [10], inactive: -0.097.
Turning to INTS2 (UniProt Q9H0H0), the log2 fold change was inactive: 0.038 in assay [1]; inactive: 0.067 in assay [2]; inactive: -0.092 in [3]; inactive: 0.052 in [4]; inactive: -0.066 with Nexturastat A; inactive: -0.035 in the assay with vemurafenib. The log2 fold change in [5] is inactive: -0.137; in [6], inactive: 0.097; with givinostat it was inactive: 0.018; in assay [7] it was inactive: -0.14; with volasertib, inactive: 0.068; with epoxomicin, inactive: 0.162. In addition, the log2 fold change in assay [11] was inactive: -0.085; in assay [12], inactive: -0.051; in assay [9], inactive: -0.057; in assay [13], inactive: 0.041.
With IGF2BP2 (UniProt Q9Y6M1), the log2 fold change in assay [1] is inactive: 0.009; in [2], inactive: -0.001; in [3], inactive: -0.008; in assay [4], inactive: -0.094; with Nexturastat A, inactive: 0.383; with vemurafenib, inactive: 0.065. Further, the log2 fold change in assay [5] was inactive: 0; in assay [6], inactive: -0.011; in the assay with givinostat, inactive: 0.153; with barasertib, inactive: -0.041; in assay [7], inactive: 0.176; in the assay with volasertib, inactive: -0.076. The log2 fold change in [8] was inactive: -0.063; with epoxomicin, inactive: -0.203; in assay [12], inactive: 0.076; in [9], inactive: 0.01; in assay [10], inactive: 0.432; in [13], inactive: -0.016.
Consider ILRUN (UniProt Q9H6K1), for which the log2 fold change is inactive: 0.06 in assay [1]; inactive: -0.02 in assay [2]; inactive: 0.088 in [3]; inactive: 0.005 in [4]; inactive: 0.072 with Nexturastat A; inactive: 0.059 in the assay with vemurafenib. The log2 fold change in assay [5] was inactive: 0.135; in [6], inactive: -0.026; in the assay with givinostat, inactive: -0.051; in the assay with barasertib, inactive: -0.044; in assay [7] it was inactive: -0.079; with volasertib it was active: -0.429. Also, the log2 fold change is inactive: 0.024 in assay [8], inactive: 0.042 with epoxomicin, inactive: 0.016 in [9] and inactive: -0.09 in assay [10].
Regarding IKZF1 (UniProt Q13422), the log2 fold change is inactive: 0.144 in [1]; inactive: 0.036 in [2]; inactive: -0.007 in assay [3]; inactive: 0.041 in assay [4]; inactive: -0.006 with Nexturastat A; inactive: 0.044 with vemurafenib. The log2 fold change in assay [5] is inactive: 0.034; in assay [6] it was inactive: 0.177; in the assay with givinostat, inactive: -0.018; with barasertib it was inactive: -0.052; in assay [7] it was inactive: 0.079; with volasertib, inactive: -0.067. The log2 fold change in assay [8] is inactive: 0.053; in the assay with epoxomicin it was inactive: -0.052; in [12] it was inactive: -0.048; in assay [9], inactive: 0.024; in [10], inactive: 0.051; in assay [13] it was inactive: -0.239.
Regarding IGFBP4 (UniProt P22692), the log2 fold change in assay [1] was inactive: 0.044; in [2], inactive: 0.207; in assay [3] it was inactive: 0.026; in [4], inactive: 0.003; with Nexturastat A, inactive: 0.019; in the assay with vemurafenib it was inactive: 0.084. In addition, the log2 fold change in [5] is inactive: -0.08; in assay [6], inactive: -0.193; with givinostat, inactive: -0.007; with barasertib it was inactive: 0.013; in assay [7], inactive: -0.22; with volasertib, inactive: -0.07. The log2 fold change in [8] was inactive: -0.092; with epoxomicin, inactive: -0.187; in assay [12], inactive: 0.173; in assay [9], inactive: -0.049; in [10] it was inactive: 0.023; in assay [13] it was inactive: -0.033.
With ILF3 isoform 7 (UniProt Q12906), the log2 fold change in [1] was inactive: 0.028; in [2] it was inactive: -0.068; in [3] it was inactive: -0.087; in [4] it was inactive: -0.036; in the assay with Nexturastat A it was inactive: 0.146; in the assay with vemurafenib it was inactive: -0.036. For the same target, the log2 fold change is inactive: -0.1 in assay [5]; inactive: 0.102 in assay [6]; inactive: -0.017 with givinostat; inactive: -0.125 in the assay with barasertib; inactive: 0.348 in assay [7]; inactive: 0.356 with volasertib. Further, the log2 fold change in assay [8] was inactive: -0.021; with epoxomicin it was inactive: -0.185; in [12] it was inactive: 0.135; in assay [9], inactive: -0.101; in assay [10], inactive: 0.146; in assay [13] it was inactive: 0.231.
For the target IMMT isoform 4 (UniProt Q16891), the log2 fold change in assay [1] was inactive: 0.009; in assay [2], inactive: 0.012; in [3] it was inactive: 0.032; in [4], inactive: 0.032; with Nexturastat A it was inactive: -0.027; with vemurafenib, inactive: -0.007. For the same target, the log2 fold change in assay [5] was inactive: 0.002; in assay [6], inactive: -0.045; with givinostat it was inactive: -0.022; in the assay with barasertib, inactive: 0.001; in assay [7] it was inactive: -0.131; in the assay with volasertib it was inactive: -0.099. Further, the log2 fold change is inactive: 0.013 in assay [8]; inactive: 0.035 with epoxomicin; inactive: -0.004 in assay [12]; inactive: 0.002 in assay [9]; inactive: -0.047 in assay [10]; active: -0.325 in assay [13].

(Values after the supplement of paper PMC10849652.)
